Test results from patent US20130273596.
Results from cells or extracts need not show a direct contact. For some assays here: For at least one entry, the source does not settle the construct or the ends of the probe. For some assays here: No signal at the amounts used counts as a negative. For some assays here: Tags and fusion partners may be left off the protein sequences shown.

Protein sequences, listed by entry. Tags and fused reporters are not part of them. Lines headed by an entry give the natural chain unless they say otherwise; changes in a name come on top.
UniProt P01103: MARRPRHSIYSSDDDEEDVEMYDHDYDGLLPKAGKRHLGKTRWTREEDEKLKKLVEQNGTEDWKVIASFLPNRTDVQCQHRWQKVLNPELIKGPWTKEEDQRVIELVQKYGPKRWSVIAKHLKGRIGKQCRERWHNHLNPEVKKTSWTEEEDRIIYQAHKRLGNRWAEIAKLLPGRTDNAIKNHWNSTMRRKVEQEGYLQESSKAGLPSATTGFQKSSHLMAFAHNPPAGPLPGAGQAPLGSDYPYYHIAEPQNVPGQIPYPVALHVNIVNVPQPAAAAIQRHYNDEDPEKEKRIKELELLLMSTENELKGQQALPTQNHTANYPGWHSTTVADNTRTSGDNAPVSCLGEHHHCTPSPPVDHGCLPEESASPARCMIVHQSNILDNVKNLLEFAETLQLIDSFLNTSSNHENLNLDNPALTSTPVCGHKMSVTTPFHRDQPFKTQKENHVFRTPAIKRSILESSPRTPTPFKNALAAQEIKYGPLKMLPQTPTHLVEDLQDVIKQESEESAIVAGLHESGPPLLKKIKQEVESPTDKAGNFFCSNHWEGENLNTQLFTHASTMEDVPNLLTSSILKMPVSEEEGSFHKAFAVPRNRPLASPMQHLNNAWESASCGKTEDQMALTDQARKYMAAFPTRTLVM

How the values were obtained:
[1] = target: T1, Sox9 (endogenous) (chicken) (UniProt P48434); assay: pull-down; details: protein in an extract
T1 sequence (looked up, limits assumed): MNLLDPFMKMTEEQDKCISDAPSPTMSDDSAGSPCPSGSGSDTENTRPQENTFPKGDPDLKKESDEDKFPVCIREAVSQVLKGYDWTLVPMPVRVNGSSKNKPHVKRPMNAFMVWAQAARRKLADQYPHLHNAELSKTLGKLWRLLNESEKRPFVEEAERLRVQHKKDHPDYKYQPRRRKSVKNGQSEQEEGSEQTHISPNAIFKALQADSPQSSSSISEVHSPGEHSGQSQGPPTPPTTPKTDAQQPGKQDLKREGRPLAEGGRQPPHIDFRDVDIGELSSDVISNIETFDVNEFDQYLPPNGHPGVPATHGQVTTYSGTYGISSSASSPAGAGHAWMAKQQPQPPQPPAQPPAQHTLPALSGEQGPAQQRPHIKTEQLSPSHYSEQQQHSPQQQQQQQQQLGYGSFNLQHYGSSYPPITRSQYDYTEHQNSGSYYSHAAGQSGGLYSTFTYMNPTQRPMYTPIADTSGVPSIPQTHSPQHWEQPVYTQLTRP

[2] = target: cMyb (endogenous) (chicken) (UniProt P01103); assay: pull-down; details: embryonic nuclear extract, 150 mM KCl, poly(dI-dC), RT; protein in an extract; label: 5' biotin
Sox9 (chicken) = Sox9 (chicken) (UniProt P48434); assay: EMSA; details: outcompeted by excess cold probe; absent with control extract; protein in a lysate after overexpression; label: 5' biotin
cMyb (chicken) = cMyb (chicken) (UniProt P01103); assay: EMSA; details: outcompeted by excess cold probe; absent with control extract; protein in a lysate after overexpression; label: 5' biotin
[3] = target: T2, Ets1 (endogenous) (chicken) (UniProt P13474); assay: pull-down; details: protein in an extract
T2 sequence (looked up, limits assumed): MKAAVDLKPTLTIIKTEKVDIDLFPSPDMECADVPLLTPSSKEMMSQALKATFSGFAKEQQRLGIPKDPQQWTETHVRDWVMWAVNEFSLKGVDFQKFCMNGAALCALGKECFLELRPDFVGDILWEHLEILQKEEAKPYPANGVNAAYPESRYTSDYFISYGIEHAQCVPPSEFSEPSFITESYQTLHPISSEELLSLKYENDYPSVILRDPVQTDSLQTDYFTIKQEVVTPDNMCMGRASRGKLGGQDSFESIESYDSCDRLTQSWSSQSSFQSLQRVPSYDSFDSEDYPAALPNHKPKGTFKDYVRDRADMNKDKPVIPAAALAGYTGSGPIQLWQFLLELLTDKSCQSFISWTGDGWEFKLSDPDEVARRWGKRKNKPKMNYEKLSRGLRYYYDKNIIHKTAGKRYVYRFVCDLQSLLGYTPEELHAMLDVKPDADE

Ets1 (chicken) = Ets1 (chicken) (UniProt P13474); assay: EMSA; details: outcompeted by excess cold probe; absent with control extract; protein in a lysate after overexpression; label: 5' biotin
[4] = embryonic nuclear extract, 150 mM KCl, poly(dI-dC), RT, label: 5' biotin
[5] = scrambled control, specific binding stated, label: biotin

TCAGGGCACAAAGGCCCAACTGTCTAGGGGG (double strand) [Sox10E2 M11/12]
binding result [1, 4]: binds | binding result [2]: binds | binding result (Sox9 (chicken)): binds

GCAATTTAACCTACAACTGCTGAGCTTGTA (double strand) [Sox10E2 M2]
binding result [2]: binds | binding result (cMyb (chicken)): binds

TACGGCAAGCTGTTCATCTGCACCA (double strand) [Sox9 Co]
binding result [1, 5]: no binding

ATGTCTACGTCGAGCGCGACGGCGA (double strand) [Ets1 Co]
binding result [3, 5]: no binding

TGGCCAGAGAGGAAATTGGGGGTTT (double strand) [Sox10E2 M9]
binding result [3, 4]: binds | binding result (Ets1 (chicken)): binds

GGCGACTGTGCTTCCGGCTGGGGCAGTG (double strand) [Sox10E2 M4]
binding result [3, 4]: binds

GGAGCAGGGAAACAATAGGTGATTT (double strand) [Sox10E2 M8]
binding result [1, 4]: binds
